The supplement of paper PMC10849652
This is one part of the list.

Sequences of proteins named here, by UniProt entry; tags and fusion partners are left off. A change or cut given only in a name is not applied to a line headed by its entry.
UniProt Q6ZVX7: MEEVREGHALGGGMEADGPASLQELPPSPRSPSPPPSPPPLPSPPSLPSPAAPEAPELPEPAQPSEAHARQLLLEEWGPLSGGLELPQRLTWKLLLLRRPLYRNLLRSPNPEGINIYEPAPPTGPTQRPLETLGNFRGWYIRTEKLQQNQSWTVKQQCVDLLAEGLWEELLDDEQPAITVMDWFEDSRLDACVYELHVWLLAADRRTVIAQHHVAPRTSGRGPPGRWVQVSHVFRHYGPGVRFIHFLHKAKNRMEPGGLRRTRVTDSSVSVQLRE
UniProt Q96PY6: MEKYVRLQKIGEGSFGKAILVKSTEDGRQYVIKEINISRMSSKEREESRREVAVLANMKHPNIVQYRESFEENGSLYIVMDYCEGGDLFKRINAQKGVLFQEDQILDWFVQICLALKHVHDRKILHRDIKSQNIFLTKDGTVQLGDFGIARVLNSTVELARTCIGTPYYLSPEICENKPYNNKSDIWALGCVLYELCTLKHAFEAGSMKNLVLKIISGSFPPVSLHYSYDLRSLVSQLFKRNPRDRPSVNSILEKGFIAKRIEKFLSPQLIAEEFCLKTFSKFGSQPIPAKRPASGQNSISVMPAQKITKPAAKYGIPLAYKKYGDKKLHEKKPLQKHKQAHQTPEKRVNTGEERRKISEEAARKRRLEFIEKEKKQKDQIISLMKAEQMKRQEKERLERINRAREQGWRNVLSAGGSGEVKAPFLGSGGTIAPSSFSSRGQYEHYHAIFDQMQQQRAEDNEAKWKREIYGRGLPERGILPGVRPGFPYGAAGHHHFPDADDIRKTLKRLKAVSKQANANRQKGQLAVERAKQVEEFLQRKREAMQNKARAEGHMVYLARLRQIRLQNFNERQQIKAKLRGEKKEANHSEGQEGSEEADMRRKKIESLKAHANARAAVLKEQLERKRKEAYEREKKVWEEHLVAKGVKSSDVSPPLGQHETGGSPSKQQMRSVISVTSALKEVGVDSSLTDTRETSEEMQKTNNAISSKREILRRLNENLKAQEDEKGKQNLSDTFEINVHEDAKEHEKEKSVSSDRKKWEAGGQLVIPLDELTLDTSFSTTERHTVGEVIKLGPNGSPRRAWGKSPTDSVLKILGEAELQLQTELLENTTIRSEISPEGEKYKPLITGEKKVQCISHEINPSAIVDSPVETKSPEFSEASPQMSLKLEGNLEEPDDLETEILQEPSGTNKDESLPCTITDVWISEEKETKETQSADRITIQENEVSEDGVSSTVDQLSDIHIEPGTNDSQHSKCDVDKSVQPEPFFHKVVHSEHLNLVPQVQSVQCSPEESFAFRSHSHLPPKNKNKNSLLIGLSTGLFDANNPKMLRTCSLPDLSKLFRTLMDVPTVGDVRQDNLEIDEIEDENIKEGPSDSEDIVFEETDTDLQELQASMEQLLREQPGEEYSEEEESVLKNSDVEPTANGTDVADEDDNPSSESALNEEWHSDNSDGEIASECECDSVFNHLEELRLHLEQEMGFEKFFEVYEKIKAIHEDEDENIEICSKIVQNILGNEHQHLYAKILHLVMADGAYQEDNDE
UniProt P49321, whole entry, looked up: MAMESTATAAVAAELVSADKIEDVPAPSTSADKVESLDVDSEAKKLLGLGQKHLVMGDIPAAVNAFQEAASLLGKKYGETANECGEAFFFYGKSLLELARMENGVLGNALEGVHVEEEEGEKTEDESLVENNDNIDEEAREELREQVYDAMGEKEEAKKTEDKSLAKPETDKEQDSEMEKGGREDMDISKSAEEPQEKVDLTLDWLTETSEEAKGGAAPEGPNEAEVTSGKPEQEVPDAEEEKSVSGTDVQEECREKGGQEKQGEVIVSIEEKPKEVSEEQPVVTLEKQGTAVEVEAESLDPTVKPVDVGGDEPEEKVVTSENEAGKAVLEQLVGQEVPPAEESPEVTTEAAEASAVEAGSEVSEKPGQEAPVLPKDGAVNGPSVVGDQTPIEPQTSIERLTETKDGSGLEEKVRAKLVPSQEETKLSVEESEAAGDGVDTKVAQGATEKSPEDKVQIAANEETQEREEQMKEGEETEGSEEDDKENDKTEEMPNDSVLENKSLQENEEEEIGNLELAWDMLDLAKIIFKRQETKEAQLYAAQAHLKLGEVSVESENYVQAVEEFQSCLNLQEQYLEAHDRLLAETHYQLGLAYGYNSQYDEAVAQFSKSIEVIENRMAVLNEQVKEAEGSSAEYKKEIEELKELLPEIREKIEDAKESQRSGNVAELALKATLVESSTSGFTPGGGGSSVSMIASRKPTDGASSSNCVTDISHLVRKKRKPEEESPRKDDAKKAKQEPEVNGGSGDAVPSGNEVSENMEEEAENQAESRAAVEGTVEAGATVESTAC
UniProt Q9UK23: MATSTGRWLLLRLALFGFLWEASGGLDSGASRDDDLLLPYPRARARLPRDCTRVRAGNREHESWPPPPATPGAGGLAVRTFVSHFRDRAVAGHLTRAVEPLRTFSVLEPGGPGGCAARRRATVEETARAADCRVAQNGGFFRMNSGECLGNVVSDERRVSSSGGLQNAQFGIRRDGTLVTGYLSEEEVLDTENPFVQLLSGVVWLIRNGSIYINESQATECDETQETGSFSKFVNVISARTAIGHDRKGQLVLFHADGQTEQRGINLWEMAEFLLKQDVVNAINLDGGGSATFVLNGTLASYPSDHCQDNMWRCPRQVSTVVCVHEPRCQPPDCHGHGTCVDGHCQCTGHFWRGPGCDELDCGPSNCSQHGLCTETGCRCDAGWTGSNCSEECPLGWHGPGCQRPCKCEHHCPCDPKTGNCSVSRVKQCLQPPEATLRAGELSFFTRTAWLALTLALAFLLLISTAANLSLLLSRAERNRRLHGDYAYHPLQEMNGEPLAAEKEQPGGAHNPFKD
UniProt Q15788: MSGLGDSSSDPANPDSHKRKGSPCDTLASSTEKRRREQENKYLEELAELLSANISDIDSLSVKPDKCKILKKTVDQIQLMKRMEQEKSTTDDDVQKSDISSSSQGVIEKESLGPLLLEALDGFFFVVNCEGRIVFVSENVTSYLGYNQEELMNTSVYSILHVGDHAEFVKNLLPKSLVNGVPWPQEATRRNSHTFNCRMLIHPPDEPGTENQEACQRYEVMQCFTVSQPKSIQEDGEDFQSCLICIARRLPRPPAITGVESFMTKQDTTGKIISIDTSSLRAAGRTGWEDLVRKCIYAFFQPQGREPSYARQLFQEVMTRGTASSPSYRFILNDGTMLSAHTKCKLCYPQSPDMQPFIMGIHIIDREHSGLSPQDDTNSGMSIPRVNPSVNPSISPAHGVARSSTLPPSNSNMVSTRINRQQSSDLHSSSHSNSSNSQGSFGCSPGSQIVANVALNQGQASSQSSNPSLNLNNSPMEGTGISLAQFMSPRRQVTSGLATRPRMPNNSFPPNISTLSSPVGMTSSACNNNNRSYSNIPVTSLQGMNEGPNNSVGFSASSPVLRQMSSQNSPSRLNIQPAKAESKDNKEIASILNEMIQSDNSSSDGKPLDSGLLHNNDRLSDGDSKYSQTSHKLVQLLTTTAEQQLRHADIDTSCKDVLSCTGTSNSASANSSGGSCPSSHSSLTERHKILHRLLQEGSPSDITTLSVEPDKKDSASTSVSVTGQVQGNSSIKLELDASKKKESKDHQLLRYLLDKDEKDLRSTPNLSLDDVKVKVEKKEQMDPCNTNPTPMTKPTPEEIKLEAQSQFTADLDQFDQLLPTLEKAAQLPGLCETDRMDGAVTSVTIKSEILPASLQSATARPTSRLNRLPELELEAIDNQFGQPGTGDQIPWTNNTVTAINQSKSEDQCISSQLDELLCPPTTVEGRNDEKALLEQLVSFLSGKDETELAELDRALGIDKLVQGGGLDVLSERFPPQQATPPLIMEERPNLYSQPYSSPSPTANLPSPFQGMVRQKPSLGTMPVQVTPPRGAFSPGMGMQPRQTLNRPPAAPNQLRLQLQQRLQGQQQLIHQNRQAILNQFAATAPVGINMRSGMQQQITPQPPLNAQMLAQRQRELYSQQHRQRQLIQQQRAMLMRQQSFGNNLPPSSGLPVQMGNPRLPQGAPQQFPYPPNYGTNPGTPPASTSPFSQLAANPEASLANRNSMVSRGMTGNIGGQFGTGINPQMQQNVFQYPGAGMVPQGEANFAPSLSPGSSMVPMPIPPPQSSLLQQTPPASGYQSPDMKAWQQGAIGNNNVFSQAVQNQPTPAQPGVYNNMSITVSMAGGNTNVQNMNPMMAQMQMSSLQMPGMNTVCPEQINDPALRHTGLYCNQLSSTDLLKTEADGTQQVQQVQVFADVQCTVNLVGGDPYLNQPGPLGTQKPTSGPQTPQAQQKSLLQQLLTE
UniProt Q9HCH0: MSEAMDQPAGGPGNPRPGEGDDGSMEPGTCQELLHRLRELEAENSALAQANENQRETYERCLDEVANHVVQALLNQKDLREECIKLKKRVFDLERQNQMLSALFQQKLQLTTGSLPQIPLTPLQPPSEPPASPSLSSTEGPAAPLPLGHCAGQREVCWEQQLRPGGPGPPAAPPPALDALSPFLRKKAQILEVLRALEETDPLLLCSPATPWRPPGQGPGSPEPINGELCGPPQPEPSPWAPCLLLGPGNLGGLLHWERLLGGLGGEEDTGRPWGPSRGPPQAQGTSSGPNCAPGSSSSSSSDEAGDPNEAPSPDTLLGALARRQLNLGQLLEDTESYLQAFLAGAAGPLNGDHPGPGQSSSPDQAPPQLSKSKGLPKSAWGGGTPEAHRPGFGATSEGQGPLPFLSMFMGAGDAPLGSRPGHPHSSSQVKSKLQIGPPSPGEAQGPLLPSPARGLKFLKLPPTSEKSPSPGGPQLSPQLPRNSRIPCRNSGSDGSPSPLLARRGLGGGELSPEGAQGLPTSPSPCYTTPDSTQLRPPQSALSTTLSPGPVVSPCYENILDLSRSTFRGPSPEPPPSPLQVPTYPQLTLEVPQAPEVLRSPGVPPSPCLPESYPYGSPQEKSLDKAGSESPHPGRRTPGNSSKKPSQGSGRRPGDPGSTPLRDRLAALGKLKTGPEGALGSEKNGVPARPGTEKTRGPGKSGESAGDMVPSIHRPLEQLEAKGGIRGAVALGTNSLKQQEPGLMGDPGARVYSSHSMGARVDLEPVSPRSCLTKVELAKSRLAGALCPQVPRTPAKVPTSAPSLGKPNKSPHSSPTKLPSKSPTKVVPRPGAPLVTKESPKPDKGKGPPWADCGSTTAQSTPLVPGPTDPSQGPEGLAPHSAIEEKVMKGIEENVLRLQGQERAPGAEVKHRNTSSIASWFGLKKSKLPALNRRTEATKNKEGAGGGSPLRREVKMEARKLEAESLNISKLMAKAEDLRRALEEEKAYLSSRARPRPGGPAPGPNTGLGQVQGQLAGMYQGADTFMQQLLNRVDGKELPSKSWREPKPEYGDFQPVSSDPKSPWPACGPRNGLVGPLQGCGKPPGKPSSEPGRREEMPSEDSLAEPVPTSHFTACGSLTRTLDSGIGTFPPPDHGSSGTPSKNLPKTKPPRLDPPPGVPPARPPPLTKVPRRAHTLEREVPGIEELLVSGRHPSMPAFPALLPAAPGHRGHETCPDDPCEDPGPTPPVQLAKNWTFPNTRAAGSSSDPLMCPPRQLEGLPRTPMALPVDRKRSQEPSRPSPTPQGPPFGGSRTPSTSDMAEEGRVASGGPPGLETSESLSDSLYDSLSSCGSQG
UniProt Q9GZM8: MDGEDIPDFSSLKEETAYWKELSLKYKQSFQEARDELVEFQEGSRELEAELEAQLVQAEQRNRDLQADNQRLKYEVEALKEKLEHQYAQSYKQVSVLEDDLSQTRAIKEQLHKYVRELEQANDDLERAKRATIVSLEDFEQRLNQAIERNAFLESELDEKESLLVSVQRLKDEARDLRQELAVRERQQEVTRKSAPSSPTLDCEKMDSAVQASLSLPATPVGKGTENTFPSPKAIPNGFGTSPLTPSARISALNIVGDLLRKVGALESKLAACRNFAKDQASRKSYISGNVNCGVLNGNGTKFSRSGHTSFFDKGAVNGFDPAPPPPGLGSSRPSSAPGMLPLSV
UniProt O43677, whole entry, looked up: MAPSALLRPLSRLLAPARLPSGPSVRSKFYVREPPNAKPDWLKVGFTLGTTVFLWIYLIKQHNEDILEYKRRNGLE
UniProt Q8N6N6: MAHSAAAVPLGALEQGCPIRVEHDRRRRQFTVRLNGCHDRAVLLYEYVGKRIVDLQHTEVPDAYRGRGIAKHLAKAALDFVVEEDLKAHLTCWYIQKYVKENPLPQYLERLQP

How the values were obtained:
Assay in all cases: log2 fold change, soluble protein after heating vs DMSO (PISA); higher = thermal stabilisation; K562 cells, 10 uM, 30 min; active = over 0.2 and 3.5 SD of the protein, either way, in both replicates (recomputed)
[1] = compound: NC(=O)c1cnc(N[C@@H]2CCCC[C@@H]2N)nc1Nc1cccc(-n2nccn2)c1
In short: (§1)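 Values are thermal stability changes relative to control samples and are taken from duplicates. They are stated as log2 fold changes. Before quantification by TMTpro 16plex LC-MS/MS with equalised channel sums, K562 cells at 2×10^6 cells/mL were treated with 10 μM compound for 30 min, heated in aliquots for 3 min across 48°C-58°C, pooled, extracted in PBS with 0.5% NP-40 at 4°C, and centrifuged at 21,000xg for 90 min to give the soluble supernatant.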

[2] = compound: NC1(c2ccc(-c3nc4ccn5c(=O)[nH]nc5c4cc3-c3ccccc3)cc2)CCC1
In short: as §1

[3] = compound: NCC(=O)Nc1ccc(-n2nc(C(F)(F)F)cc2-c2ccc3c(ccc4ccccc43)c2)cc1
In short: as §1

citarinostat = compound: O=C(CCCCCCNC(=O)c1cnc(N(c2ccccc2)c2ccccc2Cl)nc1)NO [citarinostat]
In short: as §1

silmitasertib = compound: O=C(O)c1ccc2c(c1)nc(Nc1cccc(Cl)c1)c1ccncc12 [silmitasertib]
In short: as §1

[4] = compound: O=C1NC(=O)C(c2cnc3ccccn23)=C1c1cn2c3c(cc(F)cc13)CN(C(=O)N1CCCCC1)CC2
In short: as §1

[5] = compound: c1cc(OCCN2CCCCC2)cc(-c2n[nH]c3ccc(-c4nnc[nH]4)cc23)c1
In short: as §1

[6] = compound: NC(=O)Nc1cc(-c2cccc(F)c2)sc1C(=O)N[C@H]1CCCNC1
In short: as §1

entinostat = compound: Nc1ccccc1NC(=O)c1ccc(CNC(=O)OCc2cccnc2)cc1 [entinostat]
In short: as §1

vorinostat = compound: O=C(CCCCCCC(=O)Nc1ccccc1)NO [vorinostat]
In short: as §1

Measured: log2 fold change

NCCRP1 (UniProt Q6ZVX7)
inactive: [1] 0.279 | [2] 0.132 | [3] -0.346 | citarinostat -0.009 | silmitasertib 0.01 | [4] -0.58 | [5] 1.03

NEK1 isoform 3 (UniProt Q96PY6)
inactive: [1] -0.015 | [3] -0.171

NDRG2 (UniProt G3V392)
inactive: [6] 0.095 | [2] 0.129 | entinostat -0.035 | silmitasertib -0.056 | [4] -0.06

NASP isoform 2 (UniProt P49321)
inactive: [2] 0.24 | silmitasertib -0.475

NCK1 (UniProt P16333)
inactive: [6] -0.118 | [1] -0.247 | [2] -0.056 | [3] -0.112 | entinostat 0.085 | silmitasertib 0.077 | [4] -0.194

NAGPA (UniProt Q9UK23)
inactive: [6] 0.051 | [1] -0.045 | [2] 0.03 | entinostat 0.04 | vorinostat -0.122 | citarinostat 0.074 | silmitasertib -0.237 | [4] 0.043 | [5] -0.023

NA (UniProt J3KR12)
inactive: [2] -0.292 | silmitasertib -0.108 | [4] 0.427

NCOA1 (UniProt Q15788)
inactive: [1] 0.001 | [2] -0.041 | [3] -0.155 | citarinostat -0.187 | silmitasertib 0.054 | [4] -0.058 | [5] 0.038

NCKAP5L (UniProt Q9HCH0)
inactive: [2] 0.064 | [3] -0.028 | silmitasertib -0.039

MYOF (UniProt Q9NZM1)
inactive: [1] -0.19

NDEL1 isoform 2 (UniProt Q9GZM8)
inactive: [1] -0.066 | [2] 0.039 | [3] 0.001 | vorinostat 0.071 | citarinostat -0.155 | silmitasertib -0.104 | [4] -0.15 | [5] 0.19

NDUFC1 (UniProt O43677)
inactive: [1] -0.011 | citarinostat 0.001 | [4] -0.076 | [5] -0.047

Two records picked at random from those above:
NCOA1 (UniProt Q15788)
inactive: [1] 0.001 | [2] -0.041 | [3] -0.155 | citarinostat -0.187 | silmitasertib 0.054 | [4] -0.058 | [5] 0.038

NCKAP5L (UniProt Q9HCH0)
inactive: [2] 0.064 | [3] -0.028 | silmitasertib -0.039

Continuation:

NCKIPSD (UniProt Q9NZQ3)
inactive: [1] 0.114 | [3] 0.02 | vorinostat -0.148

NAP1L1 (UniProt B7Z9C2)
inactive: [1] -0.124 | [2] 0.028 | [3] 0.064 | vorinostat 0.23 | citarinostat 0.068 | silmitasertib 0.001 | [5] 0.179

NATD1 (UniProt Q8N6N6)
inactive: [1] -0.119 | [2] -0.045 | silmitasertib 0.173

NA, A0A1W2PSA9
inactive: [1] 0.004 | vorinostat -0.364
